From publication PMC10193976
Results are given in words; binding and its absence hold for the method and conditions named. For some of these results: In cells and extracts the contact can be indirect. Some results given as binding are weak or reduced against the parent protein; the word gives no strength. For some of these results: Sequences can lack the tags named with a protein.

Tests used:
[1] = target: T1, DmMon1-ΔN (residues 101-528) (Drosophila melanogaster) (UniProt Q9VR38); experiment: cryo-EM structure; purified Mon1(101-528)-Ccz1-Bulli complex, plunge frozen on CF-1.2/1.3-3 Cu-50 grids; consensus map at 3.2 Å; both purified
T1 sequence: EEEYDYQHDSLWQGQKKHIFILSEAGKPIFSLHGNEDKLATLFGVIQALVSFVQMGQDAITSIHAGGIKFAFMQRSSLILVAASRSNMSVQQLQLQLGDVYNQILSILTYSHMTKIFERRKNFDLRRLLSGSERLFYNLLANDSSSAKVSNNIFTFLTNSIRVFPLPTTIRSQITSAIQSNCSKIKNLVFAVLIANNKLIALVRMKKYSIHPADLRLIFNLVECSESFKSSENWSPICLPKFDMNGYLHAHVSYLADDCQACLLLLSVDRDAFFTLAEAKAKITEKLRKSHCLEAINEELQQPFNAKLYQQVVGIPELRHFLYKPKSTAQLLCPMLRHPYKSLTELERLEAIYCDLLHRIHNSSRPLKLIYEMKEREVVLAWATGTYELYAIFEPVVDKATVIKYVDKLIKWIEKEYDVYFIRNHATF

[2] = target: T2, DmCcz1-fl (residues 1 to 485) (Drosophila melanogaster) (UniProt Q9VZL5); experiment: as above
T2 sequence: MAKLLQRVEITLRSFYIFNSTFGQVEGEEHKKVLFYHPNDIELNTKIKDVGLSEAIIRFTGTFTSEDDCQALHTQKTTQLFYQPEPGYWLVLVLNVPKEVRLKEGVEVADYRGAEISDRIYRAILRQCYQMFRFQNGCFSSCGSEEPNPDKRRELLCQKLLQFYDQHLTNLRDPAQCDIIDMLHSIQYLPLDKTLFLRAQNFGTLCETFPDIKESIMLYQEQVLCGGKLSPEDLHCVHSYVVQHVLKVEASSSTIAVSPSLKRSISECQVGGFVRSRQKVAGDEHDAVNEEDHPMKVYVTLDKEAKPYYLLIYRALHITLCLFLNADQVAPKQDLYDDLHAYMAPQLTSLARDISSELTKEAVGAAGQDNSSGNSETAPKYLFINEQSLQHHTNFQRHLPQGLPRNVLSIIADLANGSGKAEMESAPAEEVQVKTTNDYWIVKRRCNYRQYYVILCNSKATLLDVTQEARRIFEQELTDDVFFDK

[3] = target: T3, GST-MC1 complex (GST-Mon1 and 3×Flag-Ccz1) (Drosophila melanogaster) (UniProt Q9VR38+Q9VZL5); experiment: pull-down; purified GST-Mon1/3×Flag-Ccz1 immobilised on GSH agarose, incubated with 3×Flag-GFP-Bulli expressed in HEK293T cells; SDS-PAGE and western blotting; only the target purified
T3 sequence 1: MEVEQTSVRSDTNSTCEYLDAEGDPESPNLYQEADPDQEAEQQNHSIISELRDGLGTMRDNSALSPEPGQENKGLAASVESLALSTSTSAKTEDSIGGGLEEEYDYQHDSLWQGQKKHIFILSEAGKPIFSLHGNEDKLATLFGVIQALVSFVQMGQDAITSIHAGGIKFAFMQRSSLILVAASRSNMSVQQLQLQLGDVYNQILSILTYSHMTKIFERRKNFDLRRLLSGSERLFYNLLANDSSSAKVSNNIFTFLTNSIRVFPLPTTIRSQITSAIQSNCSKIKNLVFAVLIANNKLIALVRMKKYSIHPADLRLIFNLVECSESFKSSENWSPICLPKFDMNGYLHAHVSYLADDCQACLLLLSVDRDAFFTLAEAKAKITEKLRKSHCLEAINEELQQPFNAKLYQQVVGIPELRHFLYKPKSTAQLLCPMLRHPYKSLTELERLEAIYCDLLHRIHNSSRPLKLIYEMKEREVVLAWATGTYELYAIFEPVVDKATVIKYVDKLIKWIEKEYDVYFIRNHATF
T3 sequence 2: T2 sequence

B1: DmCcz1-fl (residues 1 to 485) (protein, UniProt Q9VZL5 1-485)
chain: T2 sequence
B1 was tested, and the binding [1] was “binds”.

B2: DmBulli-fl (residues 1 to 642) (protein, UniProt Q9VRX1 1-642)
chain: MDNSNGIHYIELTPNPIRFDAVSQLTNVFFDDSNKQIFAVRSGGATGVVVKGPGSPDDVVISFCMSDRGGAIRSIKFSPDNQILAVQRKENSVEFICFQGDQPLLQDIITHQVKTLIHGFVWVHNREVALISNTGVEVYTVVPEKRQVRSVKSLSIGIKWFAWCCDANVALLCTSEGNSLIPVLVKQKVITKLPKVDLGNPSRDVQESKVTLGQVYGVLAVLILQSNSTTGLMEVEVHLLNGPGLAPRKCHVLRLSLLGRFAINTVDNLIVVHHQASGTSLLFDISLPGEVINEITYHTPITPGRSIKPFGLKLPSLSPDGQILQCELYSTHWVLFQPNIVIDAKLGCMWFLNLCIEPLCQLISDRIRLTEFLLQRSNGKQMLLKVIGQLVDDQYKGTLLPVLETIFSRINKIYASWVQLELQNQTAQPSNVKTTTLKQSTPPIVLIEQLDMVQIFQRIARRPYTESILMLYLQSLNKFNIAAQEELSKMIISELISNRSFDTLRRLVSYSMLLESKSVACFLLSHSNVDTAISQVAIDMLGRIEAHEIIIEVMLGQGKVIDALRLAKNSMGLEKVPARKFLEAAHKTKDDLIFHSVYRFFQMRNLKLYETLSFPKAEQCTEFIQHYNNTFPADNPTRQPVS
In the case of B2, the binding [1] is reported as “binds” and the binding [2] is reported as “binds”.

B3: 3×Flag-GFP-Bulli wild type (protein, UniProt Q9VRX1 1-642)
chain: B2 chain
For B3, the binding [3] was “binds”.
